We go through one molecule from publication PMC6799934.

No constants are given. Whether binding was seen depends on the method and setting. Binding seen in cells or lysates may run through a third protein. Some results given as binding are weak or reduced against the parent protein; the word gives no strength. Where a sequence is shown, tags or fusion partners need not be part of it.

The experiment deals with STING-Flag (chicken STING), expressed in DF-1 (chicken) (UniProt E1C7U0). Description: co-IP; DF-1 cells cotransfected with tagged plasmids for 36 h, with or without Meq; lysed in ice-cold Pierce IP buffer; antibodies at 4 °C overnight, Protein G Sepharose 6 h, six washes with PBS; immunoblot. In general terms: In western blotting, separated proteins are transferred to a membrane and probed.

B1: STING-Flag (chicken STING), expressed in DF-1 (protein, UniProt E1C7U0 1-379)
chain: MPQDPSTRSSPARLLIPEPRAGRARHAACVLLAVCFVVLFLSGEPLAPIIRSVCTQLAALQLGVLLKGCCCLAEEIFHLHSRHHGSLWQVLCSCFPPRWYLALLLVGGSAYLDPPEDNGHSPRLALTLSCLCQLLVLALGLQKLSAVEVSELTESSKKNVAHGLAWSYYIGYLKVVLPRLKECMEELSRTNPMLRAHRDTWKLHILVPLGCDIWDDLEKADSNIQYLADLPETILTRAGIKRRVYKHSLYVIRDKDNKLRPCVLEFASPLQTLCAMSQDDCAAFSREQRLEQARLFYRSLRDILGSSKECAGLYRLIAYEEPAEPESHFLSGLILWHLQQQQREEYMVQEELPLGTSSVELSLQVSSSDLPQPLRSDCP
Consider B1, for which the binding result is listed as “binds”.
